The experiment relates to BDF1 mice, P388 leukemia ip, median survival T/C. In words: NCI In Vivo Anticancer Drug Screen. Data for tumor model P388 Leukemia (intraperitoneal) in B6D2F1 (BDF1) mice. As to conditions: T/C endpoint: median survival time, higher T/C = longer survival. In a few lines:
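Each value expresses how treatment altered survival: treated-mouse outcome over vehicle-mouse outcome, both groups bearing the transplanted tumour.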

The mark [1] stands for this setting: dose: 25.0 mg/kg/injection, schedule: Q01DX009 (ip), vehicle: saline with Tween-80.
Where [2] appears, read: dose: 50.0 mg/kg/injection, schedule: Q01DX009 (ip), vehicle: saline with Tween-80.
[3] abbreviates: dose: 400.0 mg/kg/injection, schedule: Q04DX003 (ip), vehicle: Klucel (hydroxypropylcellulose) (HPC).
The mark [4] stands for this setting: dose: 400.0 mg/kg/injection, schedule: Q04DX003 (ip), vehicle: saline with Tween-80.
[5] abbreviates: dose: 100.0 mg/kg/injection, schedule: Q01DX009 (ip), vehicle: saline with Tween-80.
Where [6] appears, read: dose: 100.0 mg/kg/injection, schedule: Q04DX003 (ip), vehicle: saline with Tween-80.
The mark [7] stands for this setting: dose: 50.0 mg/kg/injection, schedule: Q04DX003 (ip), vehicle: saline with Tween-80.
Setting [8] is: dose: 200.0 mg/kg/injection, schedule: Q04DX003 (ip), vehicle: saline with Tween-80.

The list is a part of this screen's results and no random one: it gathers tests that were run many times, whatever their T/C, doses with no T/C, and many T/C values between a quarter and a half above the control. Further doses and runs are listed elsewhere. T/C is the treated group as % of the vehicle group. Some entries give survivors of the animals treated and no T/C: the source holds a T/C of zero for them, seemingly a mark for toxic or unscored doses. Some doses without a T/C left all or most animals alive at the check, yet need not have been tolerated: survival well below the control is almost never listed, so the zero probably covers shortened survival too. Survivors were counted at the toxicity check, usually on the fifth day, unless a day is given; later deaths do not show. Schedules are NCI's codes, taken here to give the interval after Q, in days (D) or hours (H), and the number of doses after X. Some entries were tested several times; their values stand side by side, smallest first. For survival time, the PubChem record calls one and a half times the control and up active, and a quarter to a half above the control has no call in these data; cut-offs in other NCI protocols can differ. Some T/C values carry the count of animals alive at the toxicity check (mostly the fifth day); without a count, all were alive then. Some structures stand for samples that the source files as different forms (salt, stereo form or complex); doses refer to the form tested.

On to `CN[C@H]1CCc2cc(OC)c(OC)c(OC)c2-c2ccc(OC)c(=O)cc21`, for which the T/C (dose: 2.5 mg/kg/injection, schedule: Q01DX009 (ip), vehicle: saline) was 125 % of control and the T/C (dose: 5.0 mg/kg/injection, schedule: Q01DX009 (ip), vehicle: saline) is 127 % of control. The survivor count (dose: 20.0 mg/kg/injection, schedule: Q01DX009 (ip), vehicle: saline) is 6 of 6.

With `Clc1cc(CBr)c(CBr)cc1Cl`, the survivor count is given as 3 of 6 under setting [1] and 0 of 6 under setting [2].

Consider `O=P(CCCl)(OCCCl)N1CCCCC1` (stereo not given), for which the T/C (dose: 200.0 mg/kg/injection, schedule: Q04DX003 (ip), vehicle: saline) was 126 % of control.

With `O=C(NC(=O)c1c(F)cccc1F)Nc1nc2ccccc2s1`, the survivor count under setting [2] is 6 of 6.

For `Cc1cc(C)c(CCc2cc(C)c(C)cc2C)cc1C`, the survivor count is, setting by setting: (dose: 100.0 mg/kg/injection, schedule: Q04DX003 (ip), vehicle: Klucel (hydroxypropylcellulose) (HPC)) 6 of 6; under setting [3], 6 of 6.

As for `CCCCSc1ncnc2nc[nH]c12`, the survivor count under setting [4] is 1 of 6.

On to `CC1(C)N=C(N)N=C(N)N1c1ccc(CCCCc2ccc(Cl)cc2Cl)cc1`, for which the T/C reads like this: (dose: 6.0 mg/kg/injection, schedule: Q01DX009 (ip), vehicle: saline) 131 % of control; (dose: 6.25 mg/kg/injection, schedule: Q01DX002 (ip), vehicle: saline) 130 % of control; (dose: 9.0 mg/kg/injection, schedule: Q01DX009 (ip), vehicle: saline) 131 % of control; (dose: 12.5 mg/kg/injection, schedule: Q01DX002 (ip), vehicle: saline) 130 % of control.

Take `OC1OCCOC1O` (stereo not given): the T/C runs as follows: (dose: 60.0 mg/kg/injection, schedule: Q01DX009 (ip), vehicle: saline) 142 % of control; (dose: 100.0 mg/kg/injection, schedule: Q01DX009 (ip), vehicle: saline) 141 and 142 % of control; (dose: 200.0 mg/kg/injection, schedule: Q01DX009 (ip), vehicle: saline) 149 % of control. Moreover, the survivor count (dose: 600.0 mg/kg/injection, schedule: Q01DX009 (ip), vehicle: saline) is listed as 3 of 6.

As for `CCC(=O)OCC1OC(n2cnc3c(=S)nc(N)[nH]c32)C(OC(=O)CC)C1OC(=O)CC` (stereo not given), the T/C by setting is: (dose: 16.5 mg/kg/injection, schedule: Q04DX003 (ip), vehicle: saline + alcohol) 125 % of control; (dose: 25.0 mg/kg/injection, schedule: Q04DX003 (ip), vehicle: Klucel (hydroxypropylcellulose) (HPC)) 131 % of control; (dose: 25.0 mg/kg/injection, schedule: Q04DX003 (ip), vehicle: saline + alcohol) 141 % of control; (dose: 37.5 mg/kg/injection, schedule: Q04DX003 (ip), vehicle: Klucel (hydroxypropylcellulose) (HPC)) 136 % of control; (dose: 37.5 mg/kg/injection, schedule: Q04DX003 (ip), vehicle: saline + alcohol) 125 % of control; (dose: 50.0 mg/kg/injection, schedule: Q04DX003 (ip), vehicle: Klucel (hydroxypropylcellulose) (HPC)) 134 % of control. Further, the survivor count is, setting by setting: (dose: 100.0 mg/kg/injection, schedule: Q01DX009 (ip), vehicle: Klucel (hydroxypropylcellulose) (HPC)) 5 of 6; (dose: 200.0 mg/kg/injection, schedule: Q04DX003 (ip), vehicle: Klucel (hydroxypropylcellulose) (HPC)) 6 of 6; under setting [3], 6 of 6.

On to `Nc1nc(N)c2nc(CNc3ccc(C(=O)NC(CCC(=O)O)C(=O)O)cc3)cnc2n1` (stereo not given), for which the T/C (dose: 0.1 mg/kg/injection, schedule: Q01DX010 (ip), vehicle: other) was 130 % of control.

Consider `CCOc1ccc(/C=N/NS(=O)(=O)c2ccccc2)cc1OC`, for which, under setting [5], the T/C was 145 % of control.

Take `CCCCCCCCCCC(=O)N1CCOCC1`: the survivor count under setting [6] is reported as 2 of 6.

For `O=C1NC(c2ccccc2)(c2ccccc2)C(=O)N1CCS`, the survivor count (dose: 12.5 mg/kg/injection, schedule: Q04DX003 (ip), vehicle: saline) is reported as 6 of 6; the survivor count (dose: 50.0 mg/kg/injection, schedule: Q04DX003 (ip), vehicle: saline) is listed as 6 of 6; the survivor count (dose: 100.0 mg/kg/injection, schedule: Q04DX003 (ip), vehicle: saline) is 6 of 6.

With `CCCCCCCCCCCCCCCC(=O)OCC1OC(CO)(OC2OC(CO)C(O)C(O)C2O)C(O)C1O` (stereo not given), the survivor count under setting [3] is 2 of 6.

Regarding `O=c1ccc2cc(-c3ccncc3)cnc2[nH]1`, the survivor count is given as 1 of 6 (dose: 200.0 mg/kg/injection, schedule: Q04DX002 (ip), vehicle: saline with Tween-80) and 1 of 6 (dose: 400.0 mg/kg/injection, schedule: Q04DX002 (ip), vehicle: saline with Tween-80).

As for `CC[C@@]1(O)C[C@H](OC2CC(N(C)C)C(OC3CC(O)C(OC4CC(O)C(O)C(C)O4)C(C)O3)C(C)O2)c2c(cc3c(c2O)C(=O)c2c(O)ccc(O)c2C3=O)[C@H]1C(=O)OC` (stereo not given in full), the T/C (dose: 3.0 mg/kg/injection, schedule: Q04DX003 (ip), vehicle: water) was 138 % of control.

For `Clc1nc2ccccc2nc1CI`, the T/C reads like this: (dose: 4.12 mg/kg/injection, schedule: Q01DX009 (ip), vehicle: saline) 131 % of control; (dose: 6.25 mg/kg/injection, schedule: Q01DX009 (ip), vehicle: saline with Tween-80) 140 % of control; (dose: 6.25 mg/kg/injection, schedule: Q01DX009 (ip), vehicle: saline) 130 and 140 % of control [5 of 6 alive]; (dose: 9.37 mg/kg/injection, schedule: Q01DX009 (ip), vehicle: saline) 136 % of control. Besides, the survivor count by setting is: under setting [1], 6 of 6; (dose: 25.0 mg/kg/injection, schedule: Q01DX009 (ip), vehicle: saline) 1 of 6; under setting [7], 6 of 6; (dose: 80.0 mg/kg/injection, schedule: Q04DX003 (ip), vehicle: saline) 4 of 6; under setting [6], 4 of 6; (dose: 120.0 mg/kg/injection, schedule: Q04DX003 (ip), vehicle: saline) 4 of 6. Moreover, the survivor count is 0 of 6 under setting [8] and 0 of 6 under setting [4].

Regarding `CCCCCCCCC(=O)c1c(OC)oc(C=O)cc1=O`, the T/C is 126 % of control (dose: 9.38 mg/kg/injection, schedule: Q01DX009 (ip), vehicle: Klucel (hydroxypropylcellulose) (HPC)) and 126 % of control (dose: 18.75 mg/kg/injection, schedule: Q01DX009 (ip), vehicle: Klucel (hydroxypropylcellulose) (HPC)). Also, the survivor count is, setting by setting: (dose: 75.0 mg/kg/injection, schedule: Q01DX009 (ip), vehicle: Klucel (hydroxypropylcellulose) (HPC)) 6 of 6; (dose: 150.0 mg/kg/injection, schedule: Q01DX009 (ip), vehicle: Klucel (hydroxypropylcellulose) (HPC)) 0 of 6; (dose: 300.0 mg/kg/injection, schedule: Q01DX009 (ip), vehicle: Klucel (hydroxypropylcellulose) (HPC)) 0 of 6.

Regarding `CN(C)c1ccc(/C=C2\C=Cc3ccccc32)cc1`, the survivor count by setting is: (dose: 25.0 mg/kg/injection, schedule: Q04DX003 (ip), vehicle: saline with Tween-80) 6 of 6; under setting [7], 6 of 6; under setting [5], 6 of 6; under setting [6], 6 of 6; (dose: 200.0 mg/kg/injection, schedule: Q01DX009 (ip), vehicle: saline with Tween-80) 6 of 6; under setting [8], 6 of 6. Further, the survivor count (dose: 400.0 mg/kg/injection, schedule: Q01DX009 (ip), vehicle: saline with Tween-80) is 4 of 6 and 6 of 6.

Consider `OCc1cc(Cl)ccc1O`, for which, under “dose: 200.0 mg/kg/injection, schedule: Q04DX003 (ip), vehicle: other”, the T/C is 127 and 133 % of control.

Take `CCOC(=O)N=C=O`: the survivor count (dose: 400.0 mg/kg/injection, schedule: Q01DX009 (ip), vehicle: water) is 4 of 6.

`O=[N+]([O-])c1ccc(S(=O)(=O)Cc2ccccc2)c2nonc12`: the survivor count is 3 of 7 under setting [2] and 0 of 7 under setting [5].

The values above are taken from PubChem BioAssay AID328 (DTP/NCI, 2004).
